Binding signal data for 42 sequences are collected here from PMC7819943, “Rice protein-binding microarrays: a tool to detect cis-acting elements near promoter regions in rice”.

The chains behind the UniProt entries cited, without tags or fusion partners.
UniProt Q0JBA9, entry or part of it: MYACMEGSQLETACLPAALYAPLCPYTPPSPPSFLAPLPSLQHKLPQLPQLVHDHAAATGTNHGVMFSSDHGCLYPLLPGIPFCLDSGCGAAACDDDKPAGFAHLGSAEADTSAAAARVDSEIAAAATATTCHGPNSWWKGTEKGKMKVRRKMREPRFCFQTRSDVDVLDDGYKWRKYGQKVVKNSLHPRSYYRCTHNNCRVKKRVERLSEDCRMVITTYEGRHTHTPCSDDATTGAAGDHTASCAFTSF

The list shows a part of the results.

The experiment addresses OsWRKY34 (Oryza sativa, UniProt Q0JBA9 1-250). Briefly: protein-binding microarray (RPBM); PBS, 2% BSA, 51.3 ng/ul salmon testes DNA, 50 uM zinc acetate, 200 nM TF, 25 C, 1 h; high values mean tight binding. Particulars: protein: recombinant; tags: N-terminal polyhistidine and DsRed monomer fusion (pET32a); label: CyDye5-dUTP incorporated in the synthesized complementary strand; 3' TTTTT single-stranded linker to array surface; dsDNA, one strand shown. The procedure, abridged: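 The binding signal is fluorescence intensity per feature, in arbitrary units, read on an Axon 4000B scanner. Polyhistidine- and DsRed-tagged transcription factors (N-terminal fusions) from E. coli BL21-CodonPlus were purified on Ni–NTA and applied at 200 nM for 1 h at 25 °C to a double-stranded, BSA-blocked custom Agilent array in buffer with 50 µM zinc acetate.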
As to “GTTCACTGGCTTAATTATCCTATGGATATACTTAGCTTTTCGGAGTCACCTAGTGCAG”, the binding signal was 9140 fluorescence intensity (a.u.).

In the case of “ACGGGCGCTAGTGTCGGATCTCGGATGAGAAGATCCACGGCGGAGTCACCTAGTGCAG”, the binding signal was 10100 fluorescence intensity (a.u.).

As to “GCCGCCCCTGCCCCGCCGGAACCACGCCACGCCCGCCGCCCGGAGTCACCTAGTGCAG”, the binding signal is 8230 fluorescence intensity (a.u.).

With “AACTCAAATCTGTCTGGTATGCCATCTTGTTCTTGTCTTTCGGAGTCACCTAGTGCAG”, the binding signal was 8960 fluorescence intensity (a.u.).

For the sequence “GGAGGTGGGAGTGGGCAGTGGCTCGGCTCGTCGTCCTGGGCGGAGTCACCTAGTGCAG”, the binding signal is 8780 fluorescence intensity (a.u.).

Regarding “GTGGAGCCCACCTATCATTTTCTATTTTTCTTTTGTTTTCCGGAGTCACCTAGTGCAG”, the binding signal is 10500 fluorescence intensity (a.u.).

Regarding “CTTGACTGGCTTGTTCTCTCTCTCTCCCAGTAACCGATCTCGGAGTCACCTAGTGCAG”, the binding signal was 8440 fluorescence intensity (a.u.).

Turning to “TCATTCCTATGTTTTTTCTGTGTTTTGCAATTCTCTGTTTCGGAGTCACCTAGTGCAG”, the binding signal was 14900 fluorescence intensity (a.u.).

Regarding “ATACTCTTTTGTACCATATTGTTACAAATTGGACTAGGGGCGGAGTCACCTAGTGCAG”, the binding signal was 8590 fluorescence intensity (a.u.).

Take “AGGGTCGGTTTCCTCCTCGGCATTCTATCAAACAGTTCGTCGGAGTCACCTAGTGCAG”: the binding signal is 8230 fluorescence intensity (a.u.).

For “TCTGCATTGTAACTGTATCTGCGTTTGATCTTTGCCGATCCGGAGTCACCTAGTGCAG”, the binding signal was 9130 fluorescence intensity (a.u.).

As for “TTTTTCCTTATCCACCTGGACACGCATATATAATTCACGACGGAGTCACCTAGTGCAG”, the binding signal is 8670 fluorescence intensity (a.u.).

Turning to “TCAGTTCGCTCCTTTTCTTTTCTTTTCTTTTCCTTTTTCTCGGAGTCACCTAGTGCAG”, the binding signal was 10000 fluorescence intensity (a.u.).

In the case of “TATTGTGGTGGGAGGAGGTTTGGCTTGTGACGAGCATAGCCGGAGTCACCTAGTGCAG”, the binding signal is 8880 fluorescence intensity (a.u.).

As to “AGGGACAGCAAATAGATCTACTACTCCAGCTCACACACTACGGAGTCACCTAGTGCAG”, the binding signal was 8310 fluorescence intensity (a.u.).

Regarding “TTTTGCTTGCAACGTTTGACTACTAGTCTTATTTAATTTTCGGAGTCACCTAGTGCAG”, the binding signal is 8680 fluorescence intensity (a.u.).

Regarding “CGTCTCGCCGCCCGTCTCCGGCGGCCGCACGTTGGCATTTCGGAGTCACCTAGTGCAG”, the binding signal was 8830 fluorescence intensity (a.u.).

For the sequence “CGCGCGAGACCCGGCCATAATACCGCCTTCTGTTGTTAATCGGAGTCACCTAGTGCAG”, the binding signal is 8300 fluorescence intensity (a.u.).

Turning to “TCTTCCGTTGACAGAAACCACATCTCTACTGTAGTTATCTCGGAGTCACCTAGTGCAG”, the binding signal was 8470 fluorescence intensity (a.u.).

With “TCCACGTCACCATGGACGAAGACGCCACCTTCGCCGCCGCCGGAGTCACCTAGTGCAG”, the binding signal was 8070 fluorescence intensity (a.u.).

Turning to “GATGACCTTGTATGCATAAAATCTTTCTATTGTTTGTTCACGGAGTCACCTAGTGCAG”, the binding signal was 8080 fluorescence intensity (a.u.).

Consider “ACCACTCTCTTTCTCTTCTTGGTAGGTGTTCTTGTCAAACCGGAGTCACCTAGTGCAG”, for which the binding signal was 13200 fluorescence intensity (a.u.).

Regarding “CCAGCTTCCTTCTATATCTGTAATTTGCTTATAGCGTCTGCGGAGTCACCTAGTGCAG”, the binding signal was 8400 fluorescence intensity (a.u.).

As to “GACTCGCCACCTCACCTACTCACCAGGCTTACTTTCATCACGGAGTCACCTAGTGCAG”, the binding signal is 9460 fluorescence intensity (a.u.).

Turning to “TCTATCTTGGAACATGTCTATTTTTTTTCTCTTCCGGCAACGGAGTCACCTAGTGCAG”, the binding signal is 9360 fluorescence intensity (a.u.).

Regarding “GCCCTCACCCTCCTCACCTCTGCATCCGCTTTTGTCGCCCCGGAGTCACCTAGTGCAG”, the binding signal was 8700 fluorescence intensity (a.u.).

With “CCAAATCAATCAAATCGCATTCCACCAATTCTCCACTCTCCGGAGTCACCTAGTGCAG”, the binding signal is 9010 fluorescence intensity (a.u.).

“TTATCCAAATGTCTAACTTATTCTTTTTATTTATTGGCAGCGGAGTCACCTAGTGCAG”: the binding signal was 8410 fluorescence intensity (a.u.).

For “ACGGACAAACTGGACCACCAACGCGGACAAACAAATCTCTCGGAGTCACCTAGTGCAG”, the binding signal is 8210 fluorescence intensity (a.u.).

For the sequence “CAATTTCCACTCCATTTATTTGTTCCTTTTTTTCTAACAGCGGAGTCACCTAGTGCAG”, the binding signal is 8330 fluorescence intensity (a.u.).

For “GATCCTTTTGTCCTTGTCCATTGTTCCATCTAATGTACTACGGAGTCACCTAGTGCAG”, the binding signal is 16000 fluorescence intensity (a.u.).

As for “AGATCATCTCAATACGTTCATTTACCACTTTGTTTCACTTCGGAGTCACCTAGTGCAG”, the binding signal is 9030 fluorescence intensity (a.u.).

For the sequence “GGTTGGTGCTTCTGAATTCTGGGGTTAGGTTTGTCTCCTGCGGAGTCACCTAGTGCAG”, the binding signal was 12000 fluorescence intensity (a.u.).

Take “TAGATACAGTTGTCGTTTTGATTTGTAAACAATTTAGCATCGGAGTCACCTAGTGCAG”: the binding signal was 8590 fluorescence intensity (a.u.).

For “GCAACTTCCATCTCTTTGCAATGGTGCTTTGGCCAAGCAACGGAGTCACCTAGTGCAG”, the binding signal is 8780 fluorescence intensity (a.u.).

Regarding “CTGCGGCCACACCTCCAACCGTGTTGCTGCCATCAGCCTCCGGAGTCACCTAGTGCAG”, the binding signal is 8480 fluorescence intensity (a.u.).

Consider “AACCTAATCTAGTTTGACTCATCTGCTGGGTCAAATCTATCGGAGTCACCTAGTGCAG”, for which the binding signal is 11500 fluorescence intensity (a.u.).

With “TGGATTAGTCTGTCTTCTACTGGTTTTTAGCTGCTATAATCGGAGTCACCTAGTGCAG”, the binding signal is 11900 fluorescence intensity (a.u.).

As for “ACTGCTATCGTATTGTACTTTTGTGCTGAAATGTTCACGCCGGAGTCACCTAGTGCAG”, the binding signal is 8640 fluorescence intensity (a.u.).

As to “CTCCCATTCCATCGCCGCCACCGCCTCCGCATCTCCAGCGCGGAGTCACCTAGTGCAG”, the binding signal is 9040 fluorescence intensity (a.u.).

In the case of “TTCTCAGCCAATCCCCAGCTCACACGTGCCAACTCTTCCACGGAGTCACCTAGTGCAG”, the binding signal was 8840 fluorescence intensity (a.u.).

As for “CTTGTGGGGTGCGGGTAGCCGTTAAGGCCGCGGGGTGACTCGGAGTCACCTAGTGCAG”, the binding signal was 13000 fluorescence intensity (a.u.).
